# Some of the results follow.
# B1: Mcg Light Chain Dimer (Homo sapiens), Q6PIK1 (protein)
# chain: MAGFPLLLTLLTHCAGSWGQSLLTQPPSVSGTPGQRVTISCSGSSSNIGINYVYWYQQIPGTAPKLLISTNDQRPSGVPDRFSGSKSGTSASLAIGGLRSEDEAHYYCAAWDDSMSGPGYAFGTGTKVTVLRQPKANPTVTLFPPSSEELQANKATLVCLISDFYPGAVTVAWKADGSPVKAGVETTKPSKQSNNKYAASSYLSLTPEQWKSHRSYSCQVTHEGSTVEKTVAPTECS
# What was measured:
# Test in all cases: glycan array binding signal (z-score within array); higher = stronger binding
# Settings in all cases: glycan notation: IUPAC condensed, linker removed
# Gal(b1-2)Gal = biological target: Gal(b1-2)Gal
# In short: (§1)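 Columns mapping to the same glycan were averaged after glycan names were converted to IUPAC-condensed notation. The data come from 3228 arrays in the Consortium for Functional Glycomics database, limited to those with an available protein sequence. Binding is reported as a within-array Z-score averaged across arrays of one protein sequence and across linkers.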
# Gal(b1-3)Gal = biological target: Gal(b1-3)Gal
# In short: as §1
# Gal(b1-3)Gal(b1-4)GlcNAc = biological target: Gal(b1-3)Gal(b1-4)GlcNAc
# In short: as §1
# Gal(b1-3)GalNAc = biological target: Gal(b1-3)GalNAc
# In short: as §1
# [1] = biological target: Gal(b1-3)GalNAc(b1-3)Gal(a1-4)Gal(b1-4)Glc
# In short: as §1
# [2] = biological target: Gal(b1-3)GalNAc(b1-4)Gal(b1-4)Glc
# In short: as §1
# [3] = biological target: Gal(b1-3)GalNAc(b1-4)[Neu5Ac(a2-3)]Gal(b1-4)Glc
# In short: as §1
# Gal(b1-3)GlcNAc = biological target: Gal(b1-3)GlcNAc
# In short: as §1
# [4] = biological target: Gal(b1-3)GlcNAc(b1-2)Man(a1-3)[Gal(b1-3)GlcNAc(b1-2)Man(a1-6)]Man(b1-4)GlcNAc(b1-4)GlcNAc
# In short: as §1
# [5] = biological target: Gal(b1-3)GlcNAc(b1-3)Gal(b1-3)GlcNAc
# In short: as §1
# [6] = biological target: Gal(b1-3)GlcNAc(b1-3)Gal(b1-4)Glc
# In short: as §1
# [7] = biological target: Gal(b1-3)GlcNAc(b1-3)Gal(b1-4)GlcNAc
# In short: as §1
# [8] = biological target: Gal(b1-3)[Fuc(a1-4)]GlcNAc
# In short: as §1
# [9] = biological target: Gal(b1-3)[Fuc(a1-4)]GlcNAc(b1-3)Gal(b1-3)[Fuc(a1-4)]GlcNAc
# In short: as §1
# [10] = biological target: Gal(b1-3)[Fuc(a1-4)]GlcNAc(b1-3)Gal(b1-4)GlcNAc
# In short: as §1
# [11] = biological target: Gal(b1-3)[Fuc(a1-4)]GlcNAc(b1-3)Gal(b1-4)[Fuc(a1-3)]GlcNAc
# In short: as §1
# [12] = biological target: Gal(b1-3)[GlcNAc(b1-6)]GalNAc
# In short: as §1
# [13] = biological target: Gal(b1-3)[Neu5Ac(a2-6)]GalNAc
# In short: as §1
# [14] = biological target: Gal(b1-3)[Neu5Ac(a2-6)]GlcNAc(b1-6)Gal(b1-4)Glc
# In short: as §1
# [15] = biological target: Gal(b1-3)[Neu5Ac(b2-6)]GalNAc
# In short: as §1
# [16] = biological target: Gal(b1-4)GalNAc(a1-3)[Fuc(a1-2)]Gal(b1-4)GlcNAc
# In short: as §1
# [17] = biological target: Gal(b1-4)GalNAc(b1-3)[Fuc(a1-2)]Gal(b1-4)GlcNAc
# In short: as §1
# Gal(b1-4)Glc = biological target: Gal(b1-4)Glc
# In short: as §1
# Gal(b1-4)Glc6S = biological target: Gal(b1-4)Glc6S
# In short: as §1
# Gal(b1-4)GlcNAc = biological target: Gal(b1-4)GlcNAc
# In short: as §1
# [18] = biological target: Gal(b1-4)GlcNAc(a1-6)Gal(b1-4)GlcNAc
# In short: as §1
# [19] = biological target: Gal(b1-4)GlcNAc(b1-2)Man(a1-3)[Gal(b1-4)GlcNAc(b1-2)Man(a1-6)]Man(b1-4)GlcNAc(b1-4)GlcNAc
# In short: as §1
# [20] = biological target: Gal(b1-4)GlcNAc(b1-3)Gal(b1-3)GlcNAc
# In short: as §1
# [21] = biological target: Gal(b1-4)GlcNAc(b1-3)Gal(b1-4)Glc
# In short: as §1
# [22] = biological target: Gal(b1-4)GlcNAc(b1-3)Gal(b1-4)GlcNAc
# In short: as §1
# [23] = biological target: Gal(b1-4)GlcNAc(b1-3)Gal(b1-4)GlcNAc(b1-3)Gal(b1-4)GlcNAc
# In short: as §1
# [24] = biological target: Gal(b1-4)GlcNAc(b1-3)Gal(b1-4)[Fuc(a1-3)]GlcNAc(b1-3)Gal(b1-4)[Fuc(a1-3)]GlcNAc
# In short: as §1
# [25] = biological target: Gal(b1-4)GlcNAc(b1-3)GalNAc
# In short: as §1
# [26] = biological target: Gal(b1-4)GlcNAc(b1-3)[Gal(b1-4)GlcNAc(b1-6)]Gal(b1-4)GlcNAc
# In short: as §1
# [27] = biological target: Gal(b1-4)GlcNAc(b1-3)[GlcNAc(b1-6)]Gal(b1-4)GlcNAc
# In short: as §1
# [28] = biological target: Gal(b1-4)GlcNAc(b1-6)Gal(b1-4)GlcNAc
# In short: as §1
# [29] = biological target: Gal(b1-4)GlcNAc(b1-6)Gal(b1-4)GlcNAc(b1-6)GalNAc
# In short: as §1
# [30] = biological target: Gal(b1-4)GlcNAc(b1-6)GalNAc
# In short: as §1
# [31] = biological target: Gal(b1-4)GlcNAc(b1-6)[Gal(b1-3)]GalNAc
# In short: as §1
# Gal3S(b1-3)GalNAc = biological target: Gal3S(b1-3)GalNAc
# In short: as §1
# Gal3S(b1-3)GlcNAc = biological target: Gal3S(b1-3)GlcNAc
# In short: as §1
# [32] = biological target: Gal3S(b1-3)[Fuc(a1-4)]GlcNAc
# In short: as §1
# Gal3S(b1-4)Glc = biological target: Gal3S(b1-4)Glc
# In short: as §1
# Gal3S(b1-4)Glc6S = biological target: Gal3S(b1-4)Glc6S
# In short: as §1
# Gal3S(b1-4)GlcNAc = biological target: Gal3S(b1-4)GlcNAc
# In short: as §1
# Gal3S(b1-4)GlcNAc6S = biological target: Gal3S(b1-4)GlcNAc6S
# In short: as §1
# [33] = biological target: Gal3S(b1-4)[Fuc(a1-3)]Glc
# In short: as §1
# Gal3S4S(b1-4)GlcNAc = biological target: Gal3S4S(b1-4)GlcNAc
# In short: as §1
# Gal3S6S(b1-4)GlcNAc = biological target: Gal3S6S(b1-4)GlcNAc
# In short: as §1
# Gal3S6S(b1-4)GlcNAc6S = biological target: Gal3S6S(b1-4)GlcNAc6S
# In short: as §1
# Gal4S(b1-4)GlcNAc = biological target: Gal4S(b1-4)GlcNAc
# In short: as §1
# Gal4S6S(b1-4)GlcNAc = biological target: Gal4S6S(b1-4)GlcNAc
# In short: as §1
# Gal6S(b1-4)Glc = biological target: Gal6S(b1-4)Glc
# In short: as §1
# Gal6S(b1-4)Glc6S = biological target: Gal6S(b1-4)Glc6S
# In short: as §1
# Gal6S(b1-4)GlcNAc = biological target: Gal6S(b1-4)GlcNAc
# In short: as §1
# Gal6S(b1-4)GlcNAc6S = biological target: Gal6S(b1-4)GlcNAc6S
# In short: as §1
# GalNAc(a1-3)Gal = biological target: GalNAc(a1-3)Gal
# In short: as §1
# GalNAc(a1-3)GalNAc = biological target: GalNAc(a1-3)GalNAc
# In short: as §1
# GalNAc(b1-3)Gal = biological target: GalNAc(b1-3)Gal
# In short: as §1
# [34] = biological target: GalNAc(b1-3)Gal(a1-4)Gal(b1-4)GlcNAc
# In short: as §1
binder,measurement,setting,value
B1,glycan array binding signal (z-score),Gal(b1-2)Gal,-0.714
same,glycan array binding signal (z-score),Gal(b1-3)Gal,-0.918
same,glycan array binding signal (z-score),Gal(b1-3)Gal(b1-4)GlcNAc,-0.929
same,glycan array binding signal (z-score),Gal(b1-3)GalNAc,-0.77
same,glycan array binding signal (z-score),[1],0.426
same,glycan array binding signal (z-score),[2],-0.118
same,glycan array binding signal (z-score),[3],-0.926
same,glycan array binding signal (z-score),Gal(b1-3)GlcNAc,-0.473
same,glycan array binding signal (z-score),[4],-1.05
same,glycan array binding signal (z-score),[5],0.26
same,glycan array binding signal (z-score),[6],-0.803
same,glycan array binding signal (z-score),[7],0.658
same,glycan array binding signal (z-score),[8],-0.195
same,glycan array binding signal (z-score),[9],-0.994
same,glycan array binding signal (z-score),[10],-0.946
same,glycan array binding signal (z-score),[11],0.657
same,glycan array binding signal (z-score),[12],-0.568
same,glycan array binding signal (z-score),[13],-0.977
same,glycan array binding signal (z-score),[14],-0.733
same,glycan array binding signal (z-score),[15],0.245
same,glycan array binding signal (z-score),[16],-0.011
same,glycan array binding signal (z-score),[17],-0.873
same,glycan array binding signal (z-score),Gal(b1-4)Glc,-0.187
same,glycan array binding signal (z-score),Gal(b1-4)Glc6S,0.905
same,glycan array binding signal (z-score),Gal(b1-4)GlcNAc,-0.557
same,glycan array binding signal (z-score),[18],-0.945
same,glycan array binding signal (z-score),[19],0.659
same,glycan array binding signal (z-score),[20],0.805
same,glycan array binding signal (z-score),[21],0.133
same,glycan array binding signal (z-score),[22],-0.321
same,glycan array binding signal (z-score),[23],0.916
same,glycan array binding signal (z-score),[24],-0.852
same,glycan array binding signal (z-score),[25],-0.241
same,glycan array binding signal (z-score),[26],-0.825
same,glycan array binding signal (z-score),[27],0.531
same,glycan array binding signal (z-score),[28],0.527
same,glycan array binding signal (z-score),[29],0.421
same,glycan array binding signal (z-score),[30],-1.04
same,glycan array binding signal (z-score),[31],0.016
same,glycan array binding signal (z-score),Gal3S(b1-3)GalNAc,-0.509
same,glycan array binding signal (z-score),Gal3S(b1-3)GlcNAc,2.2
same,glycan array binding signal (z-score),[32],1.16
same,glycan array binding signal (z-score),Gal3S(b1-4)Glc,-0.54
same,glycan array binding signal (z-score),Gal3S(b1-4)Glc6S,1.76
same,glycan array binding signal (z-score),Gal3S(b1-4)GlcNAc,0.496
same,glycan array binding signal (z-score),Gal3S(b1-4)GlcNAc6S,0.368
same,glycan array binding signal (z-score),[33],-0.54
same,glycan array binding signal (z-score),Gal3S4S(b1-4)GlcNAc,3.63
same,glycan array binding signal (z-score),Gal3S6S(b1-4)GlcNAc,0.049
same,glycan array binding signal (z-score),Gal3S6S(b1-4)GlcNAc6S,5.67
same,glycan array binding signal (z-score),Gal4S(b1-4)GlcNAc,1.6
same,glycan array binding signal (z-score),Gal4S6S(b1-4)GlcNAc,0.175
same,glycan array binding signal (z-score),Gal6S(b1-4)Glc,0.392
same,glycan array binding signal (z-score),Gal6S(b1-4)Glc6S,0.257
same,glycan array binding signal (z-score),Gal6S(b1-4)GlcNAc,1.71
same,glycan array binding signal (z-score),Gal6S(b1-4)GlcNAc6S,0.505
same,glycan array binding signal (z-score),GalNAc(a1-3)Gal,-0.99
same,glycan array binding signal (z-score),GalNAc(a1-3)GalNAc,0.139
same,glycan array binding signal (z-score),GalNAc(b1-3)Gal,-0.592
same,glycan array binding signal (z-score),[34],-0.745

# A stretch from the list above:
binder,measurement,setting,value
B1,glycan array binding signal (z-score),[18],-0.945
same,glycan array binding signal (z-score),[19],0.659
same,glycan array binding signal (z-score),[20],0.805
same,glycan array binding signal (z-score),[21],0.133
same,glycan array binding signal (z-score),[22],-0.321
